PMC10746232
These are yes or no findings as the source states them, for the method shown. In cells and extracts the contact can be indirect. Some results given as binding are weak or reduced against the parent protein; the word gives no strength. Tags and fused reporters may be left off the sequences shown.

The chains behind the UniProt entries cited, without tags or fusion partners.
UniProt S8F360: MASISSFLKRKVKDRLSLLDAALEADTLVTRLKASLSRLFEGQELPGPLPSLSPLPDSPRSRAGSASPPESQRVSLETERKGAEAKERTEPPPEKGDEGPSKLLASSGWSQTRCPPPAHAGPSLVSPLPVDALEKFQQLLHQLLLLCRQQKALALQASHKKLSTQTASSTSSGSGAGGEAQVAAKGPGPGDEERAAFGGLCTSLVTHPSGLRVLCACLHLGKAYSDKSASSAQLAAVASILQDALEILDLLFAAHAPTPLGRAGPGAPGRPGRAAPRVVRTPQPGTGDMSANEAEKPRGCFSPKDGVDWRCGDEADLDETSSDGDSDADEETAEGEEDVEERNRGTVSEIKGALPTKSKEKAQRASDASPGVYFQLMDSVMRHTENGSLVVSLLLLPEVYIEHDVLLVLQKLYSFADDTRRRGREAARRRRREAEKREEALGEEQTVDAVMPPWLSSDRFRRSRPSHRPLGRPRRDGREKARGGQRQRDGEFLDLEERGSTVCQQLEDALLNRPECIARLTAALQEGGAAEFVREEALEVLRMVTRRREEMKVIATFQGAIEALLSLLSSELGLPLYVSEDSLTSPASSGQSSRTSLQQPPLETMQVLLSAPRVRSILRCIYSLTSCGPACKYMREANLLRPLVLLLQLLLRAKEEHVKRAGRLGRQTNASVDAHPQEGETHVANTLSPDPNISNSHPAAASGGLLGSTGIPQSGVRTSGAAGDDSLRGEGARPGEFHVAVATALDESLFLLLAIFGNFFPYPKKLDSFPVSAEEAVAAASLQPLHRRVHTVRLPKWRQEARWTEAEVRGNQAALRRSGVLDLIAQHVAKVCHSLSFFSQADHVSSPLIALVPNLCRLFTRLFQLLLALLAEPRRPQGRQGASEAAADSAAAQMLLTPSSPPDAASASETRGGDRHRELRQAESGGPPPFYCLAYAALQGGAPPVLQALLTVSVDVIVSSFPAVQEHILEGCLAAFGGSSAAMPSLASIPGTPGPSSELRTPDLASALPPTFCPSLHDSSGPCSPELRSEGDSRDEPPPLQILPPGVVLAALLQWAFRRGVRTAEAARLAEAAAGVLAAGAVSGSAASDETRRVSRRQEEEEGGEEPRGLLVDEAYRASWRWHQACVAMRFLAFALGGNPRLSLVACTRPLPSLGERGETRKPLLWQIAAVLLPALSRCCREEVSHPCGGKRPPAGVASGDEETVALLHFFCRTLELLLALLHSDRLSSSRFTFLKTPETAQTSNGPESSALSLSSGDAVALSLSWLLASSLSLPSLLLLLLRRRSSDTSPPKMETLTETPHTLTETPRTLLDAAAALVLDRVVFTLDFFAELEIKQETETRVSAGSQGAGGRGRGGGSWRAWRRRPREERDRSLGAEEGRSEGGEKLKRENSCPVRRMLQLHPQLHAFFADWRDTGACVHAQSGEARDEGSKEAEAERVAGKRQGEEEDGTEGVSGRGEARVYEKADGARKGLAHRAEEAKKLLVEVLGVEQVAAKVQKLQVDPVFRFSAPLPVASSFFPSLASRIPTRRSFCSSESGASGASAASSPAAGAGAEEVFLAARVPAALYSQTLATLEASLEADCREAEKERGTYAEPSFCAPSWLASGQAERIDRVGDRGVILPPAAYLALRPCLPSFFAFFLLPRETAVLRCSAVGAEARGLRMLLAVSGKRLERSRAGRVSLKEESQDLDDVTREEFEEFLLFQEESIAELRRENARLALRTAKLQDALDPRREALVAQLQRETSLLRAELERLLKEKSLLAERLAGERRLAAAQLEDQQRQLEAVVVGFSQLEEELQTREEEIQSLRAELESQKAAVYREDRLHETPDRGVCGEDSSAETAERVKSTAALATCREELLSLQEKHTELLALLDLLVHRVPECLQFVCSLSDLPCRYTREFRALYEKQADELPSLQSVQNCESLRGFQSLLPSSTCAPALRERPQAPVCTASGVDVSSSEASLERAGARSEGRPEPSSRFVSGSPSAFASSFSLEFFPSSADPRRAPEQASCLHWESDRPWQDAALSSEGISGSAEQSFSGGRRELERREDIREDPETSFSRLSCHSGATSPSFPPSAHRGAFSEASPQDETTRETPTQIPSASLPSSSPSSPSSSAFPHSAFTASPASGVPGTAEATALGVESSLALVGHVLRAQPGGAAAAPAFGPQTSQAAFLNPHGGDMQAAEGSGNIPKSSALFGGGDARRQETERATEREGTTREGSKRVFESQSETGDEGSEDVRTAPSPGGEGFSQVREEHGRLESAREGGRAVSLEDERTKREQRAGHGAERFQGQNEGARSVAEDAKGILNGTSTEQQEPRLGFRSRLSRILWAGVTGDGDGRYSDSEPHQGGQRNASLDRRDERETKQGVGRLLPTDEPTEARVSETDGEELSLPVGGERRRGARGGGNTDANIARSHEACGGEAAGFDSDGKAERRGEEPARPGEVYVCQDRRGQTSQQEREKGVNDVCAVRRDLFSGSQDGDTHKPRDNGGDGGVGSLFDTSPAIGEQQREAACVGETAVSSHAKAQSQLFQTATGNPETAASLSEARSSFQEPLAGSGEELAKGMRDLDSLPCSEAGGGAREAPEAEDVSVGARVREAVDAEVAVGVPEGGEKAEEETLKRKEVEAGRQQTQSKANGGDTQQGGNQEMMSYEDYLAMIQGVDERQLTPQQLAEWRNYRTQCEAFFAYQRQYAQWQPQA

Molecular target: TGME49_289120^myc (Toxoplasma gondii (endogenous in RH tachyzoites)) (UniProt S8F360)
Assay: co-IP; myc-tagged bait (TgCOPI-δ^myc, TgSec31^myc or Tg289120^myc) isolated on α-Myc magnetic beads from parasites co-expressing endogenous TgCog3^AID-HA or TgCog7^AID-HA; western blot with α-HA and α-myc; extraction in PBS with 263 mM NaCl, 1% Triton X-100

B1: TgCog7^AID-HA (protein, UniProt S8FAE0 1-1223)
chain: MASPVPKPPEGALPGSPLPSSNSSSSASLQSSAVSAAFNALSAPTFSAGAWLDACIERSLEQQAFEAPPVASSSLASSPETETARLADRLESTLESVLAEVQRRIATTFEALDTKSQDLSSAAPTYVKQVEELSGKLVDARRTVDDALKALSCVDFEHQESLRRLAALDALRRHFHRCRRVLLVLHQWDFRVGEIELLLHSFQHQETPLIANPASSVDGTPFHPHQPSQGQGLSDDADASTFSSSSFSSSASSASSASSASSSSSSSAFEHAASTARLRSLAQAAMHAAALKNAVQELKAFGEFSARVRAAELLEKRVVVVTRSLMRSAFLSGDAESLRVAMNISVTLNHSAQLQQELSKCFGDQLRQAWLATWARTPAGRRRREAEVAAGACWALAPNERLHGERELYAEEQGDGFPREEADACGDDASVEKEQRTIGEPEALLLYFEEFTRLLEERSSLLRLFADELSQAEIRALRASSDDASSTSSCSSAAHSASSSSRSADPQGPFGCGRRGEEETSGVAGAASQAPHRPLRLHRTASRLHTRVWEETLLLCLKVGGEAPNAEVEAFLAAGGADLEEDDEERMARIEKLLQTYDMGFTLLSATPVVAESEPHIPQLWRKISSTCLFFPALLLRQFNAALWKSSRRFFLQDAPSVRPFDKRQAPSQVVMELEGRLDRTLQRLSSPALAALSPGAFHLCLAPCLLSAVDDAVAEFLSSLSPVLQTFAHTIQYKTQSIQDTQNRERERDLPARGNAGDFLPLDVLPTSLPFDLSLLNACMQQYLLFASAQQKLAQGAAVVFDEALTGHRRHSRFNVYLRELTNLHPDLLVYPSPSAVAHSASLLPSSCSSSFSAPPLPSVLPASFAAYTKLRHASRALVLLACSAPCSLFLHRFYPLCWGAISVSSSAQRAESLLREQRESINGQESKAILPSSVSTAAGEFFLQLLPHLEVAAAGAKGSEKRETEVESSDESLIAGLLSVVFTSFCRALLVADLPTRLTKEEPVQRGELRENMLLQLQADARYLASLSRSLGYDPEEESSFLFFETESGEGSEKARDAQADKQDQQTKDEERESSDLGETKKEEKDEAVRQERKRGPTWMIGLLLRGLDALLGTAEGETSAEPSAAKREEIKNNADENSSSLGCLGAFEAHLRRKFAREKNETKGESPSDSERVRAARAVAAAALESPSSDLCKSEKEKEDEEVTLVWAVLCQLGVFPSPL
Which binding does the source give for B1 here?
Its binding is “binds”.
